Measured values published in PubChem BioAssay AID504327 (National Center for Advancing Translational Sciences (NCATS), 2011).
In all, about 390,000 compounds went through this assay and about 820 (0.21%) were called active. This list was built around the results that the source calls inconclusive (neither active nor inactive); the mix of calls is not that of the screen. Calls follow the shape of the dose curve; as a rule, active = well fitted inhibition curve with a large enough effect; inconclusive = small, poorly fitted or top-dose-only effect, or another doubt; inactive = no such curve, though single readings can be large or run the other way. Potencies beside an inconclusive call are fits to weak or partial responses and may not hold up.

By UniProt entry, the sequences of proteins in these tests, tags left out.
UniProt Q92830, whole entry, looked up: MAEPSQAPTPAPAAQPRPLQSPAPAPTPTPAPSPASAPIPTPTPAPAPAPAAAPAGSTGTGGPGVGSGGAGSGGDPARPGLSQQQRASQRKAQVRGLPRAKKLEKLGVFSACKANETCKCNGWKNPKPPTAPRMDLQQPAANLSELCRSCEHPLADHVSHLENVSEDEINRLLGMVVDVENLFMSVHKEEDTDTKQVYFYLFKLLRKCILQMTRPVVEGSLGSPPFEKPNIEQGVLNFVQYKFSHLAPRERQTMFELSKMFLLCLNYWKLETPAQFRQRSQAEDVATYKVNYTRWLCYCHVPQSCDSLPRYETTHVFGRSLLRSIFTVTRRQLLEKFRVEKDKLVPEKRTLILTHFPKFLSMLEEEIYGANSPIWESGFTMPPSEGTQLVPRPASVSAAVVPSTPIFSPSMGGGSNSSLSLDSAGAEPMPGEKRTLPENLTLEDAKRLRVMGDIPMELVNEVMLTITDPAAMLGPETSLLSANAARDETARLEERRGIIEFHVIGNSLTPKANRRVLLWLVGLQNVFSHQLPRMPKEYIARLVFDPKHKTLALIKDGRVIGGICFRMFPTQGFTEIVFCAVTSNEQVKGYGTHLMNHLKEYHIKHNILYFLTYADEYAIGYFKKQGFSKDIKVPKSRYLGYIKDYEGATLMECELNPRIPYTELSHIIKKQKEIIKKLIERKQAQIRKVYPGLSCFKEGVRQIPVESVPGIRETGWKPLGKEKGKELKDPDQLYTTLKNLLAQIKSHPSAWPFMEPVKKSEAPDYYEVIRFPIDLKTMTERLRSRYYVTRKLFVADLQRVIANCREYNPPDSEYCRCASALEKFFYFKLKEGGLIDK

Each molecule was assayed against Histone acetyltransferase KAT2A (Homo sapiens) (UniProt Q92830) (assay: qHTS Assay for Inhibitors of GCN5L2). Details: GCN5L2 HAT assay, ThioGlo1 CoA-SH fluorescence; activity change, negative = inhibition: at 58.9 µM (top of the series) unless noted.
Excerpt: Histone acetyltransferase (HAT) enzymes transfer a […] group from acetyl-coenzyme A to the epsilon-amino group of conserved lysine residues of N-terminal histone tails. Acetylation results in charge neutralization of this positively charged amino acid, decreasing interactions with the […] backbone and making the DNA more accessible for transcription. HATs have been recognized as an emerging drug target for treatment of cancer, diabetes, asthma, chronic obstructive pulmonary disease, cardiac disease, and viral infection. Protein identified with HAT activity include the […] like 2 (GCN5L2, a.ka. Histone acetyltransferase KAT2A) which acetylates histone H3 at Lys9, 14, 18, 13, and to lesser extent histones H4 and H2B. This activates transcription of the gene by modulating chromatin structure and installing the acetyllysine recognition mark for bromodomain-containing coactivator proteins.
A quantitative high throughput screen was developed to identify small molecule inhibitors. The assay is based on the principle that it measures formation of reduced CoA with the pro-fluorescent maleimide derivative ThioGlo1 that becomes fluorescent upon reaction with the free thiol of CoA.
A large number of artifacts are expected in this primary screen, compounded by the assay format (fluorescent artifacts) and by the high top concentration tested for each substance. This BioAssay data deposition should be used with caution, and counterscreen and secondary assay validation is essential since very few actives from the primary screen are expected to be true inhibitors of GCN5L2.
[2] Yasgar, et al. Compound Management for Quantitative High-Throughput Screening. JALA. 2008 Apr;13(2):79-89.
[3] Inglese, et al. Quantitative high-throughput screening: a titration-based approach that efficiently identifies biological activities in large chemical libraries. Proc Natl Acad Sci. 1;103(31):11473-8. 2006. PMID: 16864780
NIH Molecular Libraries Probe Production Network [MLPCN]
NIH Chemical Genomics Center [NCGC]
Structural Genomics Consortium (SGC)
To each well of a 1,536w plate, 3ul of GCN5L2 (final concentration 20nM, in 50mM HEPES, 0.1mM EDTA (pH 7.5), 0.01% Tween-20 buffer) are added using a Kalypsys dispenser. Only buffer is added to some wells as a control. A Kalypsys pin-tool transferred 23nl of library compound solution in DMSO to each well, as well as the control inhibit garcinol. . Following a 15 min incubation of enzyme with compounds at room temperature, 1ul mixture of ThioGlo1 (50uM final), H3(1-25) peptide (75uM final), and Acetyl-CoA (70uM final) is added. Plates are read immediately on the ViewLux (PerkinElmer) (Ex340nm/Em540nm) for a 0 min read, incubated for 20 min at room temperature, and read again on the ViewLux with the same settings. The initial read was carried out to identify compounds that are potentially fluorescent.
% is scaled to controls: 0 for no effect and ±100 for the full control effect; potency is read from the fitted curve at half-maximal effect.

Compound	Potency	activity change, negative = inhibition
Cc1ccc(C(=O)NCc2ccco2)cc1S(=O)(=O)N1CCCCC1	inconclusive: 0.891 µM [inhibitor, single point]	–
CCOC(=O)C1=C(C)N(c2ccc(OC)cc2)C(=O)/C1=C\c1ccc(O)c(OCC)c1	inconclusive: 25.1 µM [inhibitor, partial curve]	–
CS(=O)(=O)Nc1ccc([N+](=O)[O-])cc1Oc1ccccc1	inconclusive: 15.8 µM [inhibitor, single point]	–
O=C(CNCC1CCCCC1)Nc1ccccc1N1CCCCC1	inconclusive: 31.6 µM [inhibitor, single point]	–
O=C(NC(=S)NCCC1=CCCCC1)c1ccccc1Br	inconclusive: 39.8 µM [inhibitor, single point]	–
COc1ncnc2c1sc1nc(-c3ccccc3)c3c(c12)CCCC3	inconclusive: 10 µM [inhibitor, partial curve, poor fit]	–
C=CCn1c(=NC(=O)c2cccs2)sc2cccc(OC)c21	inconclusive: 39.8 µM [inhibitor, single point]	–
Nc1nc(N2CCN(C(=O)c3ccco3)CC2)nc2ccc(Br)cc12	–	inactive: -0.304%
CCOC(=O)CSC1=C(C#N)C(=O)NC(c2ccc(OC)cc2)S1 (stereo unspecified)	inconclusive: 39.8 µM [inhibitor, single point]	–
CC(=O)NC(=S)Nc1sc2c(c1C#N)CCCCC2	–	inactive: 0.568%
COc1ccc(N(C)C(=O)c2cc3c(s2)-c2c(C)cccc2OC3)c(OC)c1	inconclusive: 44.7 µM [inhibitor, single point]	–
Cc1cccn2c(=O)cc(CSc3nnc(NC(=O)COc4ccccc4)s3)nc12	inconclusive: 14.1 µM [inhibitor, partial curve]	–
NCC(O)c1ccc(O)c(O)c1 (stereo unspecified)	–	inactive: -4.99%
CC(C)(C)NC(=S)Nc1ccc(Br)cc1	inconclusive: 39.8 µM [inhibitor, single point]	–
Cc1nnc2sc(SCC(=O)Nc3cccc(Cl)c3)nn2c1=O	inconclusive: 4.47 µM [inhibitor, single point]	–
O=C(Nc1cnn(Cc2ccc(F)cc2)c1)c1cc(-c2cccs2)on1	–	inconclusive: -31.6% [inhibitor]
COc1cccc(N2C(N)=NC(N)=NC2(C)C)c1	inconclusive: 6.31 µM [inhibitor, single point]	–
CCC(C)(C)C1CCC(=NNS(=O)(=O)c2ccc(C)c([N+](=O)[O-])c2)CC1 (stereo unspecified)	–	inactive: 0.697%
CC(=O)c1cccc(NC(=O)c2cc(C)nc3c2c(C)nn3-c2cccc(Cl)c2C)c1	–	inactive: 0.403%
COc1ccc(Oc2coc3cc(OC(=O)N4CCOCC4)ccc3c2=O)cc1	inconclusive: 0.631 µM [inhibitor, single point]	–
CCN(C(=O)CSc1nnc(C(C)N(C)C)n1-c1ccc(F)cc1)C1CCS(=O)(=O)C1 (stereo unspecified)	–	inactive: -12.9%
COc1ccc(OC)c(S(=O)(=O)N2CCC(C(=O)N3CCc4ccccc4C3)CC2)c1	inconclusive: 1.41 µM [inhibitor, full curve]	–
CC(C)(C)n1nc(C2CC2)cc1NC(=O)Nc1ccc(Cl)cc1	–	inactive: -1.81%

Reprinted at random: three compounds from above, in no set order.
Compound	Potency	activity change, negative = inhibition
O=C(Nc1cnn(Cc2ccc(F)cc2)c1)c1cc(-c2cccs2)on1	–	inconclusive: -31.6% [inhibitor]
COc1ccc(OC)c(S(=O)(=O)N2CCC(C(=O)N3CCc4ccccc4C3)CC2)c1	inconclusive: 1.41 µM [inhibitor, full curve]	–
O=C(NC(=S)NCCC1=CCCCC1)c1ccccc1Br	inconclusive: 39.8 µM [inhibitor, single point]	–

Going on with the list:

Compound	Potency	activity change, negative = inhibition
O=C1CNC(=S)N1Cc1ccccc1Cl	inconclusive: 1 µM [inhibitor, single point]	–
CCOC(=O)c1c(C)n(C)c2ccc(OC(=O)c3ccco3)cc12	inconclusive: 0.794 µM [inhibitor, single point]	–
Cc1cccc(NC(=O)CCC(=O)N/N=C/c2cccnc2)c1	inconclusive: 0.447 µM [inhibitor, single point]	–
Cc1nc(SCC(=O)NCCc2ccc(Cl)cc2)nc(C)c1C	inconclusive: 39.8 µM [inhibitor, single point]	–
CC1=C(C(=O)Nc2ccccc2)C(c2ccc[nH]2)n2ncnc2N1 (stereo unspecified)	inconclusive: 4.47 µM [inhibitor, full curve]	–
O=C(O)C1=CCNCC1	inconclusive: 39.8 µM [inhibitor, single point]	–
O=C(O)c1ccc(-n2cccc2/C=C2/SC(=O)N(CC(=O)N3CCCC3)C2=O)cc1	inconclusive: 15.8 µM [inhibitor, partial curve]	–
CSc1nc(=S)c2[nH]c(=S)[nH]c2[nH]1	active: 3.16 µM	–
Cc1cc2c(cc1S(=O)(=O)N1CC(C)CC(C)C1)OCC(=O)N2 (stereo unspecified)	inconclusive: 7.08 µM [inhibitor, single point]	–
COc1ccc(C2CC(C)=NN2C=O)cc1OC (stereo unspecified)	inconclusive: 0.794 µM [inhibitor, partial curve, poor fit]	–
Cc1cccc(/C=N/NC(=O)c2ccccc2OCc2cccc(Br)c2)n1	–	inactive: -5.92%
COc1ccc(Cl)cc1NC(=O)CCCn1c(C)c2cnn(-c3ccccc3)c(=O)c2c1C	–	inactive: -10%
Cc1c(NC(=O)c2ccc(F)cc2)c(=O)n(-c2ccccc2)n1C	inconclusive: 4.47 µM [inhibitor, single point]	–
COc1ccc(CNc2ncc(-c3ccccc3)n2C)c(OC)c1OC	inconclusive: 2 µM [inhibitor, partial curve]	–
Cc1[nH]c2ccccc2c1C(=O)COC(=O)c1ccc[n+]([O-])c1	inconclusive: 39.8 µM [inhibitor, single point]	–
Cc1cccc(CN2CCN(CC(=O)O)C2=O)c1	inconclusive: 8.91 µM [inhibitor, single point]	–
S=c1[nH]nc(C2CCCCC2)n1/N=C/C=C/c1ccccc1	inconclusive: 0.708 µM [inhibitor, partial curve, poor fit]	–
CN1C(=O)/C(=C2\SC(N)=NC2=O)c2ccccc21	–	inactive: -5.82%
O=C(Nc1cccc(Cl)c1)Nc1nc(-c2ccccc2)cs1	–	inactive: -2.95%
COc1ccc2ccccc2c1C1CC(=O)N2CN(C)CSC2=C1C#N (stereo unspecified)	active: 22.4 µM	–
COc1ccc(OC)c(NC(=O)N[C@H](Cc2ccccc2)C(=O)NN)c1	inconclusive: 1 µM [inhibitor, full curve]	–
CC1CCN(C2=NC(=O)/C(=C/c3ccccc3F)S2)CC1	inconclusive: 6.31 µM [inhibitor, single point]	–
O=C(Nc1ccnn1C1CCN(Cc2ccc3nonc3c2)CC1)c1cccc(F)c1	–	inactive: -5.75%
